Literature values as cited in patent US20150072881A1 (priority 2010, published 2015).
“Also recorded” adds a separate entry of the source. For at least one compound, name, drawing or mass did not settle the structure.

How the values were obtained:
[1] = system: genes (and gene products, eg., mRNA or protein); settings: in vivo
D3 receptor = settings: nucleus accumbens, cocaine overdose victims
dopamine = settings: directly or indirectly

Compound: CN1CCc2cc(Cl)c(O)cc2[C@@H](c2ccccc2)C1 [SCH-23390]
- blockade of substance-induced mRNA increase [1]: caudate-putamen and nucleus accumbens, blocked by SCH-; also recorded: Cart in nucleus accumbens (effect blocked by both SCH-

Compound: N#C/C(=C(/N)Sc1ccc(N)cc1)c1ccccc1C(F)(F)F [SL327]
- blockade of substance-induced mRNA increase [1]: zif268, blocked by SL327 an inhibitor of MAPK/ERK kinase, as

Compound: COC(=O)[C@H]1[C@@H](OC(=O)c2ccccc2)C[C@@H]2CC[C@H]1N2C [cocaine]
- D3 receptor mRNA increased (D3 receptor): D3 receptor in nucleus accumbens increased 6-fold in cocaine
- effect on dopamine release or re-uptake (dopamine): enhance release or block re-uptake of dopamine

Compound: C=C[C@@]1(C)CC(=O)[C@]2(O)[C@@]3(C)[C@@H](O)CCC(C)(C)[C@@H]3[C@H](O)[C@H](OC(C)=O)[C@@]2(C)O1 [forskolin]
- mRNA increase [1]: CART - effect attenuated by inhibition of PKA with H89 [N-(2-
